Assay results reported in article PMC3564912, “Single Particle Electron Microscopy Analysis of the Bovine Anion Exchanger 1 Reveals a Flexible Linker Connecting the Cytoplasmic and Membrane Domains” (PLoS ONE, 2013).
Results are given in words; binding and its absence hold for the method and conditions named. Some binding calls cover weakened binding; strength is not graded here.

Biological target: bovine anion exchanger 1 (AE1) (bovine) (UniProt Q9XSW5)
Assay: negative staining electron microscopy, orthogonal tilt reconstruction and single particle analysis; freshly prepared AE1 dimers stained with 0.8% uranyl formate on carbon film; 174,197 particles; 2-fold symmetry imposed; 2.4 nm at 0.5 FSC; both purified

binding: binds
B1: bovine anion exchanger 1 (AE1) (natural protein, UniProt Q9XSW5 1-930, looked up)
chain: MGDPEEYEDQLEETLEQKEYEDHDSVSIPMEEAEGDTIQEEEAEARVNQLTDTDYHTTSQHPETHKVCVQLRELVMDEKNQEIQWMETARWVGLEENLGKDGIWGRPHLPYLNFWSLLELQKAFAKGTVLLDLPGKSLAEVANQLLDRFTFEGQIQPDDQDNLLRVLLLKHSHASDMEALGGVKPVVVTHSGDPSEPLLPQHPSLETELFCEQGEGSTRGHAPEILGKSPQDWEATLVLVGCARFLKRPVLGFVRLKEPMEPEPKPEGSEEPAVPVRFLIVLLGPEGPNINYTQLGRAAATLMSERVFWNDAYLAQSKETLVQSLEGFLDCSLVLPPLDAPSEKALLSLVPVQKELLRRRYLPSPAKPDPSIFKDLDVKKGPGDTPEDPLQRTGKLFGGLVRDIRRRYPRYLSDITDALSPQVLSAIIFIYFAALTPAITFGGLLGDKTENMIGVSELLLSTALQGIIFSLLGAQPLLVLGFSGPLLVFEEAFYSFCQTNNLEYIVGRVWIGFWLILLVVLVVAFEGSFLVRFISRYTQEIFSFLISLIFIYETFYKLVTIFQDHPLQKNYDHDVLTTPKPQAALPNTALLSLVLMAGTFFLAMMLRKFKNSSYFPGKLRRIIGDFGVPISILIMVMVDALIQDTYTQKLSVPEGLSVSNPTERDWLIHPLGIRVEFPIWMMFASALPALLVFILIFLESQITTLIISKPERKMVKGSGFHLDLLLIIGMGGVGAIFGMPWLSATTVRTVTHANALTVMSKDSTPGAVSQIQGVKEQRISGLLVAVLVGVSILMGPVLRHIPLAVLFGIFLYMGVTSLSGIQLFDRVLLLLKPRKYYPEVPYARRVKTWRMHLFTITQIVCLVVLWVVRSIKQISLALPFILILTVPLRRFLLPFIFRDMELKLLDADDVKLNLDEQNGQDEYDEVAMPV
notes: anion exchanger 1 (AE1, band 3), bovine, native protein from erythrocyte membranes; monomer about 100 kDa; Solubilised in dodecyl maltoside (0.03% DDM in the final buffer); The dimer fraction from size exclusion was used; also called bovine AE1; full-length AE1 dimer; source: purified from bovine erythrocyte membranes (ghosts; DDM extraction, DE-52 ion exchange, Superose 6 size exclusion)
